Molecules are shown by their SMILES. “And” between values parts separate entries of the source, which are not always exact repeats. Equal values may be shown once. Where a name gives a salt, the structure may show the parent alone. ± gives the standard deviation of the averaged measurements. Over roughly 1,800 compounds, “GFP- (p16Ink4a-) cell count relative to negative-control wells” has its median near 0.99; the lowest 2% begin near 0.5. Some of the results follow.

The subject of the test is mouse p16Ink4a+/- lung fibroblasts (INKBRITE, bleomycin-injured). As to the kind of experiment: GFP- (p16Ink4a-) cell count relative to negative-control wells (fold of vehicle); higher = more p16Ink4a- cells surviving. Particulars: 1 µM; 3 days.
Regarding `C=CC(=O)N1CCCC(n2nc(-c3ccc(Oc4ccccc4)cc3)c3c(N)ncnc32)C1` (centres undefined) [Ibrutinib], the GFP- was 0.678.
The figure for `CS(=O)(=O)c1cccc(CNc2nc(Nc3ccc4c(c3)CCC(=O)N4)ncc2C(F)(F)F)c1` is 0.745.
Molecule `CC(C)[C@@H](C)/C=C/[C@@H](C)[C@@H]1CC[C@H]2C3=CC=C4C[C@@H](O)CC[C@]4(C)[C@@H]3CC[C@@]21C` [Ergosterol] came in with a GFP- of 0.969.
The figure for `CC1(C)CCC[C@]2(C)[C@H]3CC(=O)O[C@]3(C)CC[C@@H]12` [Sclareolide] is 1.01; for `CC1(C)O[C@@H]2C[C@H]3[C@@H]4CCC5=CC(=O)CC[C@]5(C)[C@@]4(F)[C@@H](O)C[C@]3(C)[C@]2(C(=O)CCl)O1` [Halcinonide] it is 1.02.
The figure for `C#CCN[C@@H]1CCc2ccccc21` [Rasagiline] is 1.02; for `Cc1ccccc1-n1c(Cn2nc(-c3cccc(O)c3)c3c(N)ncnc32)nc2cccc(C)c2c1=O` it is 0.646.
`CC1=C(CC(=O)O)c2cc(F)ccc2/C1=C\c1ccc(S(C)=O)cc1` (centres undefined) [Sulindac] displayed a GFP- of 1.07.
The figure for `NC(=O)N1c2ccccc2CC(=O)c2ccccc21` [Oxcarbazepine, Trileptal] is 1.06; for `[K]` [Potassium Iodide] it is 0.867; for `COC(=O)CCc1ccc(OCC(O)CNC(C)C)cc1` (centres undefined) [Esmolol, Esmolol Hydrochloride] it is 1.
As for `NCCS` [Cysteamine], the GFP- came to 0.915.
The figure for `C[C@]12C=CC(=O)C=C1CC[C@H]1[C@@H]3C[C@@H](O)[C@](O)(C(=O)CO)[C@@]3(C)C[C@H](O)[C@@]12F` [Triamcinolone] is 0.986.
Under `CO/C(O)=C1\C(C)=NC(C)=C(C(=O)O[C@@H]2CCCN(Cc3ccccc3)C2)[C@@H]1c1cccc([N+](=O)[O-])c1` [Benidipine] stands 1.11.
Under `Cn1c([N+](=O)[O-])cnc1COC(N)=O` [Ronidazole] stands 1.04; under `CCN1CCN(c2ccc(Nc3cc(N(C)C(=O)Nc4c(Cl)c(OC)cc(OC)c4Cl)ncn3)cc2)CC1`, 1.04.
As for `NCC(=O)CCC(=O)O` [Aminolevulinic acid], the GFP- is 1.01.
The figure for `Cc1ccc(C)c(OCCCC(C)(C)C(=O)O)c1` [Gemfibrozil] is 1.04; for `O=C(O)C[C@H](O)C[C@H](O)/C=C/c1c(C2CC2)nc2ccccc2c1-c1ccc(F)cc1` [Pitavastatin Calcium] it is 0.836; for `C[C@@H](O)[C@H]1C(=O)N2C(C(=O)O)=C(S[C@@H]3CN[C@H](CNS(N)(=O)=O)C3)[C@H](C)[C@H]12` [Doripenem] it is 1.07.
Under `Cn1cnc(N)c2ncnc1-2` [3-Methyladenine] stands 0.988; under `C=CCNC(N)=S` [Allylthiourea], 1.17.
Under `Nc1ccc(C(=O)NCC(=O)O)cc1` [Aminohippuric Acid] stands 1.06; under `COc1cc(Nc2nc3ccccc3nc2NS(=O)(=O)c2ccc(NC(=O)c3ccc(C)c(OC)c3)cc2)cc(OC)c1`, 0.961; under `COc1cc2c(cc1Cc1cccc(Cl)c1F)c(=O)c(C(=O)O)cn2[C@H](CO)C(C)C` [Elvitegravir], 1.11.
`Cc1cnc(Nc2ccc(OCCN3CCCC3)cc2)nc1Nc1cccc(S(=O)(=O)NC(C)(C)C)c1` returned a GFP- of 0.924 ± 0.17.
Under `NS(=O)(=O)Cc1noc2ccccc12` [Zonisamide] stands 1.33; under `CCc1cc2c(cc1N1CCC(N3CCOCC3)CC1)C(C)(C)c1[nH]c3cc(C#N)ccc3c1C2=O` [Alectinib], 1.08.
In turn, `Cc1ccc2nc(NCCN)c3ncc(C)n3c2c1` returned a GFP- of 1.01.
Under `COc1ccc2cc1Oc1ccc(cc1)C[C@H]1c3cc(c(OC)cc3CCN1C)Oc1c(OC)c(OC)cc3c1[C@H](C2)N(C)CC3` [Tetrandrine] stands 0.963.
The figure for `CN(C)CCC(c1ccccc1)c1ccccn1` (centres undefined) [Pheniramine] is 0.968; for `C[N+]1(C)[C@@H]2C[C@@H](OC(=O)C(O)(c3cccs3)c3cccs3)C[C@H]1[C@@H]1O[C@@H]12` [Tiotropium] it is 1.03; for `NC(=O)c1cnc(N[C@@H]2CCCC[C@H]2N)nc1Nc1cccc(-n2nccn2)c1` it is 0.883.
The figure for `O=C(Nc1cccc(Nc2ncc(Br)c(NCCc3c[nH]cn3)n2)c1)N1CCCC1` is 1.11; for `CCCNC(C)C(=O)Nc1c(C)csc1C(=O)OC` (centres undefined) [Articaine] it is 0.965.
`CC(C)(Sc1cc(C(C)(C)C)c(O)c(C(C)(C)C)c1)Sc1cc(C(C)(C)C)c(O)c(C(C)(C)C)c1` [Probucol]: the GFP- amounted to 1.06.
Under `C#C[C@]1(O)CC[C@H]2[C@@H]3CCC4=CC(=O)CC[C@@H]4[C@H]3CC[C@@]21CC` [Levonorgestrel] stands 1.05; under `CNCc1ccc(C)c(NC(=O)c2ccc(Nc3nc(-c4ccccc4)c4ccccc4n3)cc2)c1`, 1.06; under `CC(=O)O[C@H]1C[C@@H]2CC[C@@H]3[C@H](CC[C@@]4(C)[C@H]3C[C@H]([N+]3(C)CCCCC3)[C@@H]4OC(C)=O)[C@@]2(C)C[C@@H]1N1CCCCC1` [Vecuronium], 1.03.
Under `CC(C)c1nc(N(C)S(C)(=O)=O)nc(-c2ccc(F)cc2)c1/C=C/[C@@H](O)C[C@@H](O)CC(=O)O` [Rosuvastatin, Rosuvastatin Calcium] stands 1.03; under `COc1cc(/C=C/C(=O)N2CCN(CC(=O)N3CCCC3)CC2)cc(OC)c1OC` [Cinepazide maleate], 1.05.
Under `COc1cccc2c1C(=O)c1c(O)c3c(c(O)c1C2=O)C[C@@](O)(C(=O)CO)C[C@@H]3O[C@H]1C[C@H](N)[C@H](O[C@@H]2CCCCO2)[C@H](C)O1` [Pirarubicin] stands 0.81; under `COC(=O)CCSCc1ccc(-c2onc(C)c2NC(=O)OC(C)c2ccccc2Cl)cc1` (centres undefined), 0.932.
`CCCCNc1ccc(C(=O)OCCN(C)C)cc1` [Tetracaine]: the GFP- is 1.13.
Under `CN[C@@H](C)C(=O)N[C@H](C(=O)N1CCC[C@H]1C(=O)Nc1snnc1-c1ccccc1)C1CCCCC1` stands 1.31; under `COc1cc(NS(=O)(=O)c2ccc(N)cc2)nc(OC)n1` [Sulfadimethoxine], 0.986; under `Cc1cc(Nc2cc(N3CCN(C)CC3)nc(/C=C/c3ccccc3)n2)n[nH]1`, 0.65 ± 0.11.
Consider `O=S(=O)(c1ccccc1)N(CC(F)(F)F)c1ccc(C(O)(C(F)(F)F)C(F)(F)F)cc1`, for which the GFP- was determined as 0.972.
Under `COc1ccnc2[nH]cc(C(=O)C(=O)N3CCN(C(=O)c4ccccc4)C[C@H]3C)c12` stands 1.01.
For `Cc1cccc(-c2[nH]ncc2-c2ccc3ncccc3n2)n1`, the GFP- came out at 1.3.
The figure for `Cn1cc(-c2ccc3nnc(C(F)(F)c4ccc5ncccc5c4)n3n2)cn1` is 0.945.
Under `NS(=O)(=O)c1ccc(NC(=O)Nc2ccc(F)cc2)cc1` stands 1.06; under `COc1ccc2ccc(=O)oc2c1CC=C(C)C` [Osthol], 1.09; under `Cc1cc(F)c(Nc2ncnc3cc(OCc4ccccc4)ccc23)cc1O`, 1.1.
The figure for `Cc1cc(C(C)(C)C)cc(C)c1CC1=NCCN1` [Xylometazoline] is 1.04; for `COc1ccc(S(=O)(=O)N(C(C)=O)c2ccccc2/C=C/c2cc[n+]([O-])cc2)cc1` it is 0.564.
With `Cn1cncc1[C@@](N)(c1ccc(Cl)cc1)c1ccc2c(c1)c(-c1cccc(Cl)c1)cc(=O)n2C` [Tipifarnib], the GFP- stood at 0.666.
The figure for `CNC(=O)[C@H](Cc1ccccc1)NC(=O)[C@H](CC(C)C)[C@H](CSc1cccs1)C(=O)NO` [Batimastat] is 1.08; for `COc1cc2ncnc(Nc3ccc(O)c(Br)c3)c2cc1OC` it is 0.883 ± 0.044.
Take `CCCC(=O)Nc1cccc(NC(=O)c2ccccc2Br)c1`: the GFP- came to 1.03.
Under `C#CCC(Cc1cnc2nc(N)nc(N)c2n1)c1ccc(C(=O)N[C@@H](CCC(=O)O)C(=O)O)cc1` (some centres undefined) [Pralatrexate] stands 0.846.
The figure for `CO/N=C(\C(=O)N[C@@H]1C(=O)N2C(C(=O)OCOC(=O)C(C)(C)C)=C(/C=C\c3scnc3C)CS[C@H]12)c1csc(N)n1` [Cefditoren Pivoxil] is 0.786; for `CC(=O)OCC(=O)[C@@]12OC(C)(C)O[C@@H]1C[C@H]1[C@@H]3C[C@H](F)C4=CC(=O)C=C[C@]4(C)[C@@]3(F)[C@@H](O)C[C@@]12C` [Fluocinonide] it is 1.01; for `CC1=NN(c2ccc(C(=O)O)cc2)C(=O)/C1=C\c1ccc(-c2cc(C)c(C)cc2[N+](=O)[O-])o1` it is 1.04 ± 0.047.
Under `CC(C)c1cc(-c2nnc(O)n2-c2ccc3c(ccn3C)c2)c(O)cc1O` [Ganetespib] stands 0.538.
As for `OC[C@H]1O[C@@H](n2cnc3c(O)ncnc32)[C@H](O)[C@@H]1O` [Inosine], the GFP- came out at 0.949.
In the case of `CC1=NC(N)=C(C(=O)OC2CN(C(c3ccccc3)c3ccccc3)C2)C(c2cccc([N+](=O)[O-])c2)/C1=C(/O)OC(C)C` (centres undefined) [Azelnidipine], the GFP- turned out to be 1.11.
The figure for `C=CCc1ccc(O)c(-c2cc(CC=C)ccc2O)c1` [Magnolol] is 0.993; for `Cc1coc2c1C(=O)C(=O)c1c-2ccc2c1CCCC2(C)C` [Tanshinone IIA] it is 1.21; for `Oc1nc(-c2ccc(C(F)(F)F)cc2)nc2c1CSCC2` it is 0.911.
The figure for `CCN1CCN(Cc2ccc(-c3cc4c(N[C@H](C)c5ccccc5)ncnc4[nH]3)cc2)CC1` is 0.941; for `COc1cc(Br)c(Nc2nc(-c3c(C)nc4ncccn34)cs2)c(Br)c1` it is 0.6; for `CN1CCN2c3ncccc3Cc3ccccc3C2C1` (centres undefined) [Mirtazapine] it is 0.905.
Under `NC1(c2ccc(-c3nc4ccn5c(O)nnc5c4cc3-c3ccccc3)cc2)CCC1` stands 0.82.
As to `CN1CCc2c(c3ccccc3n2Cc2ccc(C(=O)NO)cc2)C1` [Tubastatin A HCl], the GFP- is 0.854 and 0.999.
As for `C[C@@H]1CCN(C(=O)CC#N)C[C@@H]1N(C)c1ncnc2[nH]ccc12` [Tofacitinib], the GFP- was 0.889 and 0.806.
Under `CNC(=O)c1ccc(C)c(-n2c(C)cc(OCc3ccc(F)cc3F)c(Br)c2=O)c1` stands 0.988; under `O=C(NCCS(=O)(=O)c1ccc(C(F)(F)F)cn1)c1ccc(Cl)cc1`, 1.01.
Under `CNC1CCCN(c2c(F)cc3c(=O)c(C(=O)O)cn(C4CC4)c3c2OC)C1` (centres undefined) [Balofloxacin] stands 0.875.

The values above are taken from the supplement of paper PMC11060735.
